Patent US20100021918A1, “METHOD FOR ASSAYING ACTION OF ANTITUMOR AGENT USING SPLICING DEFECTS AS INDEX” (Eisai R&D Management Co., Ltd., priority 2007, published 2010)
This continues a long series; more values of the same kind are listed elsewhere.

Test system: human colon carcinoma cell strain WiDr
Assay: Microarray analysis (2), reviewed conditions, intron expression, Table 3
Type: cell-based
Experimental: WiDr cells were first suspended in RPMI1640 medium (containing 10% FBS, penicillin, and streptomycin) and seeded in a 10 cm dish (2×10^6 cells/dish). After an overnight culture in an incubator with 5% carbon dioxide gas at 37° C., the medium was changed with medium containing 14 nM of (8E,12E,14E)-7-((4-cycloheptylpiperazin-1-yl)carbonyl)oxy-3,6,16,21-tetrahydroxy-6,10,12,16,20-pentamethyl-18,19-epoxytricosa-8,12,14-trien-11-olide or containing vehicle alone. After cultured for additional six hours, TRI reagent (SIGMA) were added to the cells and the cells were harvested. RNA was purified in accordance with the protocol of TRI reagent, followed by further purification with RNeasy (QIAGEN). Absorbance at 260 nm was measured to quantify an amount of RNA. This experiment was repeated three times and RNA samples (n=3) were prepared.
Ribosomal RNA was removed from 1 μg of each total RNA of control cells (n=3) and cells with the treatment (n=3) by using RiboMinus Human/Mouse Transcriptome Isolation Kit (Invitrogen). Single stranded cDNA synthesis, double stranded cDNA synthesis, cRNA synthesis, second single stranded cDNA synthesis, cDNA fragmentation, and cDNA labeling in order were carried out for the total RNA from which ribosomal RNA was removed, by using GeneChip Whole Transcript Sense Target Labeling and Control Reagents (Affymetrix) to make a cDNA probe. The cDNA probe was used for hybridization with Human Exon 1.0 ST Array (Affymetrix). The array was washed and stained, and luminescence intensity was measured by a scanner.
Analysis conditions were reviewed in the data used in Example 3. Genes containing increased introns upon treatment with (8E,12E,14E)-7-((4-cycloheptylpiperazin-1-yl)carbonyl)oxy-3,6,16,21-tetrahydroxy-6,10,12,16,20-pentamethyl-18,19-epoxytricosa-8,12,14-trien-11-olide were identified.
In order to consider the analysis conditions, variations in the data from the samples with identical conditions were studied. […] It turned out that, by analyzing under conditions where the expression level was more than 100 and change in the expression level was more than five times, a probe set with increased expression can be extracted.
Probe sets showing that the normalized change in the level expression of the probe set in the group with the treatment was more than 5 times; the expression level of the probe set and the gene in the group with the treatment were more than 100; and probe set annotation was “extended, full, free”, were picked out. Welch's t-test was conducted with the probe sets extracted for the treated group and the control group to determine a p and q value. A gene containing the probe sets with the q value of less than 5% was determined as a candidate gene with increased expression level of the intron regions (Table 3).
In Table 3, for each gene evaluated, gene name (Gene Name), abbreviated name (Gene Symbol), accession number (Accession), alias name (Synonym), transcription cluster number in Human Exon 1.0 ST Array (Human Exon 1.0 ST Array Transcript Cluster ID), chromosome number (Chromosome), type of strand (Strand), start region (Start), stop region (Stop), and change in expression level (Fold Change) were respectively shown.

CCC(O)C(C)C1OC1CC(C)(O)/C=C/C=C(\C)C1OC(=O)CC(O)CCC(C)(O)C(OC(=O)N2CCN(C3CCCCCC3)CC2)/C=C/C1C (stereo not shown) [E7107, (8E,12E,14E)-7-((4-cycloheptylpiperazin-1-yl)carbonyl)oxy-3,6,16,21-tetrahydroxy-6,10,12,16,20-pentamethyl-18,19-epoxytricosa-8,12,14-trien-11-olide]
Fold Change (Gene Symbol ADAM9, Transcript Cluster ID 3095002): 5.67
Fold Change (Gene Symbol ADPRHL2, Transcript Cluster ID 2330253): 5.73
Fold Change (Gene Symbol AFTPH, Transcript Cluster ID 2485433): 5.82
Fold Change (Gene Symbol AHCTF1, Transcript Cluster ID 2465324): 5.92
Fold Change (Gene Symbol AKAP8L, Transcript Cluster ID 3853345): 5.87
Fold Change (Gene Symbol ANKRD10, Transcript Cluster ID 3525679): 5.83
Fold Change (Gene Symbol ANP32B, Transcript Cluster ID 3181417): 5.66
Fold Change (Gene Symbol ARF1, Transcript Cluster ID 2383726): 5.58
Fold Change (Gene Symbol ARHGEF7, Transcript Cluster ID 3501661): 5.61
Fold Change (Gene Symbol ARIH2, Transcript Cluster ID 2621827): 5.91
Fold Change (Gene Symbol AURKB, Transcript Cluster ID 3744263): 5.92
Fold Change (Gene Symbol BCL2L1, Transcript Cluster ID 3902489): 5.85
Fold Change (Gene Symbol BLCAP, Transcript Cluster ID 3904928): 5.57
Fold Change (Gene Symbol BRAF, Transcript Cluster ID 3076340): 5.68
Fold Change (Gene Symbol C1orf164, Transcript Cluster ID 2333907): 5.72
Fold Change (Gene Symbol C4orf14, Transcript Cluster ID 2770427): 5.72
Fold Change (Gene Symbol C11orf68, Transcript Cluster ID 3378007): 5.91
Fold Change (Gene Symbol C14orf151, Transcript Cluster ID 3554282): 5.67
Fold Change (Gene Symbol C17orf70, Transcript Cluster ID 3773980): 5.87
Fold Change (Gene Symbol CACYBP, Transcript Cluster ID 2368198): 5.90
Fold Change (Gene Symbol CCNH, Transcript Cluster ID 2865860): 5.74
Fold Change (Gene Symbol CDCA3, Transcript Cluster ID 3442322): 5.93
Fold Change (Gene Symbol CLK1, Transcript Cluster ID 2594497): 5.88
Fold Change (Gene Symbol CLTC, Transcript Cluster ID 3729172): 5.76
Fold Change (Gene Symbol CPSF4, Transcript Cluster ID 3014764): 5.66
Fold Change (Gene Symbol CSNK1E // KIAA1660, Transcript Cluster ID 3960478): 5.51
Fold Change (Gene Symbol CSTF1, Transcript Cluster ID 3890154): 5.77
Fold Change (Gene Symbol CTNNAL1, Transcript Cluster ID 3219621): 5.76
Fold Change (Gene Symbol CUL4A, Transcript Cluster ID 3502497): 5.85
Fold Change (Gene Symbol CYR61, Transcript Cluster ID 2344888): 5.52
Fold Change (Gene Symbol DCTN4, Transcript Cluster ID 2881554): 5.54
Fold Change (Gene Symbol DDX39, Transcript Cluster ID 3852691): 5.84
Fold Change (Gene Symbol DPH2 // B4GALT2 // ATP6V0B, Transcript Cluster ID 2333635): 5.72
Fold Change (Gene Symbol ELP4, Transcript Cluster ID 3325307): 5.48
Fold Change (Gene Symbol EMG1, Transcript Cluster ID 3403140): 5.65
Fold Change (Gene Symbol FLJ20366, Transcript Cluster ID 3148871): 5.48
Fold Change (Gene Symbol G3BP2 // NARG2 // RORA, Transcript Cluster ID 2773756): 5.54
Fold Change (Gene Symbol GATA6, Transcript Cluster ID 3781245): 5.67
Fold Change (Gene Symbol GLS, Transcript Cluster ID 2520291): 5.65
Fold Change (Gene Symbol GPIAP1, Transcript Cluster ID 3326183): 5.92
Fold Change (Gene Symbol GRLF1, Transcript Cluster ID 3837001): 5.92
Fold Change (Gene Symbol GSR, Transcript Cluster ID 3130161): 5.49
Fold Change (Gene Symbol GTF3C5, Transcript Cluster ID 3192653): 5.81
Fold Change (Gene Symbol HIPK1, Transcript Cluster ID 2352758): 5.77
Fold Change (Gene Symbol HNRPH1, Transcript Cluster ID 2890148): 5.57
Fold Change (Gene Symbol HNRPH3, Transcript Cluster ID 3249738): 5.68
Fold Change (Gene Symbol HNRPU, Transcript Cluster ID 2464499): 5.85
Fold Change (Gene Symbol IFRD2, Transcript Cluster ID 2675088): 5.71
Fold Change (Gene Symbol IK, Transcript Cluster ID 2831932): 5.66
Fold Change (Gene Symbol KCTD5, Transcript Cluster ID 3645204): 5.50
Fold Change (Gene Symbol KLF5, Transcript Cluster ID 3493543): 5.70
Fold Change (Gene Symbol LGALS8, Transcript Cluster ID 2386867): 5.84
Fold Change (Gene Symbol LRRC1 // C20orf44, Transcript Cluster ID 2910680): 5.54
Fold Change (Gene Symbol LSG1, Transcript Cluster ID 2711818): 5.69
Fold Change (Gene Symbol MCM3, Transcript Cluster ID 2957126): 5.50
Fold Change (Gene Symbol MLPH, Transcript Cluster ID 2534252): 5.70
Fold Change (Gene Symbol MRPS11, Transcript Cluster ID 3607183): 5.80
Fold Change (Gene Symbol MYD88, Transcript Cluster ID 2617563): 5.71
Fold Change (Gene Symbol NAT5, Transcript Cluster ID 3878934): 5.65
Fold Change (Gene Symbol NDUFB11, Transcript Cluster ID 4007009): 5.86
Fold Change (Gene Symbol NFAT5, Transcript Cluster ID 3666779): 5.80
Fold Change (Gene Symbol NFKBIA, Transcript Cluster ID 3561039): 5.90
Fold Change (Gene Symbol NHN1, Transcript Cluster ID 3673515): 5.49
Fold Change (Gene Symbol NME1-NME2 // NME1, Transcript Cluster ID 3726934): 5.52
Fold Change (Gene Symbol NOLC1, Transcript Cluster ID 3261492): 5.73
Fold Change (Gene Symbol NR2F2, Transcript Cluster ID 3610110): 5.79
Fold Change (Gene Symbol NRBP1, Transcript Cluster ID 2474527): 5.77
Fold Change (Gene Symbol NUDCD1, Transcript Cluster ID 3148796): 5.68
Fold Change (Gene Symbol PAFAH1B2, Transcript Cluster ID 3350749): 5.72
Fold Change (Gene Symbol PARD3, Transcript Cluster ID 3284596): 5.49
Fold Change (Gene Symbol PBEF1 // RP11-92J19.4, Transcript Cluster ID 3066818): 5.77
Fold Change (Gene Symbol PDCD2L, Transcript Cluster ID 3829751): 5.57
Fold Change (Gene Symbol PITPNB, Transcript Cluster ID 3956290): 5.87
Fold Change (Gene Symbol PLAGL2, Transcript Cluster ID 3902682): 5.63
Fold Change (Gene Symbol POLR1A, Transcript Cluster ID 2562605): 5.81
Fold Change (Gene Symbol PPAT, Transcript Cluster ID 2770242): 5.65
Fold Change (Gene Symbol PPIL4 // SLC25A24, Transcript Cluster ID 2978876): 5.54
Fold Change (Gene Symbol PPTC7, Transcript Cluster ID 3471300): 5.77
Fold Change (Gene Symbol PREI3 // HSPE1, Transcript Cluster ID 2521500): 5.67
Fold Change (Gene Symbol PSCD2, Transcript Cluster ID 3837836): 5.69
Fold Change (Gene Symbol PSMC2, Transcript Cluster ID 3017206): 5.65
Fold Change (Gene Symbol PSMD2, Transcript Cluster ID 2655650): 5.89
Fold Change (Gene Symbol PTMA // FAM22G, Transcript Cluster ID 2532021): 5.52
Fold Change (Gene Symbol RICS, Transcript Cluster ID 3397877): 5.68
Fold Change (Gene Symbol RNF34, Transcript Cluster ID 3434823): 5.87
Fold Change (Gene Symbol RNF43, Transcript Cluster ID 3764399): 5.56
Fold Change (Gene Symbol RNF139, Transcript Cluster ID 3114618): 5.59
Fold Change (Gene Symbol RP2, Transcript Cluster ID 3975869): 5.85
Fold Change (Gene Symbol SEC24C, Transcript Cluster ID 3251848): 5.62
Fold Change (Gene Symbol SECISBP2, Transcript Cluster ID 3178611): 5.74
Fold Change (Gene Symbol SEMA4B, Transcript Cluster ID 3607927): 5.80
Fold Change (Gene Symbol SF3B3, Transcript Cluster ID 3667281): 5.78
Fold Change (Gene Symbol SH3RF1, Transcript Cluster ID 2793137): 5.78
Fold Change (Gene Symbol SLBP, Transcript Cluster ID 2757319): 5.85
Fold Change (Gene Symbol SLC7A6, Transcript Cluster ID 3666146): 5.86
Fold Change (Gene Symbol SLC25A3, Transcript Cluster ID 3427820): 5.50
Fold Change (Gene Symbol SLC39A14, Transcript Cluster ID 3089360): 5.86
Fold Change (Gene Symbol SLK, Transcript Cluster ID 3262433): 5.49
Fold Change (Gene Symbol SMC1A, Transcript Cluster ID 4009238): 5.53
Fold Change (Gene Symbol SMCR7L, Transcript Cluster ID 3945877): 5.88
Fold Change (Gene Symbol SMG1, Transcript Cluster ID 3683050): 5.86
Fold Change (Gene Symbol SRRM1 // C1orf130, Transcript Cluster ID 2325526): 5.49
Fold Change (Gene Symbol ST3GAL4, Transcript Cluster ID 3355145): 5.71
